# Measurements published in PubChem BioAssay AID2417 (National Center for Advancing Translational Sciences (NCATS), 2010).
# Values joined by “and” are separate entries in the source; they are usually repeats but may differ in a detail not shown here. Identical values can stand only once. Among all 140,000 compounds or so, about 4,300 (3.1%) were called active. The inconclusive results got no clear call from the source; some entries with a clear call stand among them for comparison.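 The calls were made as follows: active = readout at or below -70, meaning at least 70% loss of cells showing the perinucleolar compartment, a nuclear body marking cancer cells; inconclusive = readout between -30 and a set limit; inactive = the rest.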
# Experiment: High Content Assay for Compounds that inhibit the Assembly of the Perinucleolar Compartment;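 also: plate controls were DMSO wells for no effect and camptothecin positive control wells for full effect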
# Details: PC3M PTB-GFP, PNC prevalence imaging, 16 h; at 10 µM; stronger effect = lower value
# Outline: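 Read-out is percentage of cells bearing a perinucleolar compartment, from automated 20x imaging of fixed, Hoechst-stained PC3M PTB-GFP cells. Cells were seeded 4 h, then exposed 16 h to compound (23 nl of library stock) in duplicate plates.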
row,Compound,"activity change (PNC), negative = inhibition"
1,Cc1ccc(NC(=O)CN2C(=O)CN=C(c3ccccc3)c3cc(Cl)ccc32)cc1,inconclusive: -34.3%
2,CN1C2CCC1/C(=C/c1ccccn1)C(=O)/C2=C\c1ccccn1,active: -109%
3,CCOC(=O)c1ccc(NC(=O)c2c(O)[nH]c(=O)[nH]c2=O)cc1,inconclusive: -31.2%
4,CCN(CC)c1ccc(/C=N/c2sc3c(c2C#N)C2CCN3CC2)c(O)c1,inconclusive: -55.5%
5,CCc1cccc(CC)c1NC(=S)N1CC2CC(C1)c1cccc(=O)n1C2 (centres undefined),inconclusive: -56.6%
6,O=C(O)CCn1cc(C=C2C(=O)NC(=O)NC2=O)c(-c2ccc(Br)cc2)n1,inactive: -8.11%
7,CC(=O)Nc1ccc(S(=O)(=O)NC(CC(=O)N2CCC3(CC2)OCCO3)C(C)C)cc1 (centres undefined),inactive: -19.4%
8,CC(NC(=O)Oc1ccccc1)C(c1cccs1)N1CCOCC1 (centres undefined),inactive: 53.5%
9,C#C[C@]1(O)CC[C@H]2[C@@H]3CCC4=CC(=O)CC[C@]4(C)[C@H]3CC[C@@]21C,inactive: 22.6%
10,CN(C)P(=O)(C(Cl)=C(N1CCCCC1)N1CCCCC1)N(C)C,inconclusive: -33.1%
11,Cn1nc(N)c2c1N=P(N1CCOCC1)(N1CCOCC1)N=C2c1ccccc1,inconclusive: -52.3%
12,CC1=CC(=C2C(=O)NC(=O)NC2=O)C=C(C(F)(F)F)N1C(C)C,inconclusive: -46.6%
13,CC1(C)C(c2ccccc2)=NC(c2cccnc2)N1O (centres undefined),inconclusive: -43.1%
14,O=C1CC(c2ccccc2)CC(O)=C1C=NCCN1CCN(C(=O)Cc2ccccc2)CC1 (centres undefined),inactive: 36%
15,CCC(=O)OC1(c2cccc(C)c2)CC(C)N(C)CC1C (centres undefined),inconclusive: -33.8%
16,O=[N+]([O-])c1ccc(N2CCNCC2)cc1NCC1CCCO1 (centres undefined),inconclusive: -39%
17,Cc1nc2ccc(Cl)cc2c(-c2ccccc2)c1C(=O)O,inconclusive: -63%
18,Nc1c(C(=O)NCc2ccco2)c2nc3ccccc3nc2n1CCN1CCOCC1,inconclusive: -63.4%
19,CN1C(=O)C(=Cc2ccccc2OCc2ccccc2Cl)C(=O)N(C)C1=O,inconclusive: -33%
20,Cc1ccc(-c2nc(CS(=O)CC(=O)N3CCC4(CC3)OCCO4)c(C)o2)cc1 (centres undefined),inconclusive: -47%
21,CCOC(=O)C1=C(N)Oc2c(c(=O)oc3ccccc23)C12C(=O)N(C)c1ccccc12 (centres undefined),inactive: -23.5%
22,Cc1ccc2ccccc2c1NC(=O)CNC1CCCCC1,inactive: 68%

row,Compound,"activity change (PNC), negative = inhibition"
1,CC[C@@H]1C(=O)OC[C@@H]1Cc1cncn1C,inactive: 29.2% and inconclusive: -51.1%
2,CCSc1nnc(C(N)Cc2ccccc2)o1 (centres undefined),inactive: 52.5%
3,Cc1sc2ncn(CC(=O)NCCCC(=O)N3CCC4(CC3)OCCO4)c(=O)c2c1C,inactive: 79.8%
4,CC(C)NC(=O)Cn1cc(C(=O)c2ccccc2F)c2ccccc21,inactive: 32.8%
5,COc1cc(/C=C(/C)[N+](=O)[O-])ccc1OCc1ccccc1Cl,inconclusive: -34.1%
6,O=C(NC(Oc1ccccc1)C(Cl)(Cl)Cl)c1ccccc1 (centres undefined),inactive: 140%
7,C/C(=N\N1CCCCC1c1cccnc1)c1c(O)n(C2CCCCC2)c(=S)[nH]c1=O (centres undefined),inconclusive: -54.4%
8,CC(C)CCn1c(=O)c(C(=O)Nc2ccccc2S(N)(=O)=O)c(O)c2ccccc21,inconclusive: -52.6%
9,CCOC(=O)c1c(/N=C/c2c(O)n(-c3ccccc3F)c(=S)[nH]c2=O)sc2c1CCCC2,inconclusive: -48.1%
10,C=CCn1c(O)c(C(CC)=NC(C)c2ccccc2)c(=O)[nH]c1=O (centres undefined),active: -94.4%
11,COc1ccc(OC)c(CC(=O)O)c1,inconclusive: -36.4%
12,CC12CCC3C(CC=C4CC(O)CCC43C)C1C/C(=C\c1cccc(F)c1)C2=O (centres undefined),inactive: 11.4%
13,Cc1cc(C(=O)N2CCC3(CC2)OCCO3)cs1,inactive: 42%
14,CCCC1(CCC)C(=O)NC(=NCc2ccccc2)NC1=O,inactive: 5.63%
15,Cn1c(C(=O)O)c(CC(=O)N2CCN(Cc3ccccc3)CC2)c2ccccc21,inconclusive: -33.3%
16,Cc1ccc(Cl)cc1-n1c(O)c(C=NCCCN2CCOCC2)c(=O)[nH]c1=O,inconclusive: -49.6%
17,CN1CCC(N(C)c2nc(-c3ccc([N+](=O)[O-])cc3)nc3ccccc23)CC1,inconclusive: -41.3%
18,O=C(c1ccco1)c1cn(Cc2ccccc2Cl)c2ccccc12,inactive: 2.38%
19,CN(C)CC#CCOCCOCCC#N,inconclusive: -32.7%
20,CCc1ccc(-n2c(O)c(/C=N/N3CCCCC3c3cccnc3)c(=O)[nH]c2=O)cc1 (centres undefined),active: -99.5%
21,Cc1ccccc1C(O)(Cc1ccccc1)C1CN2CCC1CC2 (centres undefined),inactive: 18.8%
22,CC(=NCCN1CCOCC1)c1c(O)n(C2CCCCC2)c(=O)[nH]c1=O,inactive: 24.4%
